From the supplement of paper PMC12067093, “Discovery and optimisation of a covalent ligand for TRIM25 and its application to targeted protein ubiquitination” (Chemical Science, 2025)
The list shows a part of the results.

Compound: CC1Cc2ccccc2N1C(=O)C1CCCN(C1)C(=O)CCl (mixture of isomers) [TRIM25 ligand 11 (diastereomer mixture)]
Assay: probe-labelled cysteine peptide fold change vs DMSO (competition) (log2 fold change); higher = less target engagement (more negative = stronger competition)
Details: THP-1, incubation time: 4 h
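Also: competitive chemoproteomic profiling in live THP-1 cells with an iodoacetamide desthiobiotin (IA-DTB) probe, comparing probe-labelled peptide intensities in compound-treated cells against DMSO-treated controls.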

Target	probe-labelled cysteine peptide fold change (10 µM)	probe-labelled cysteine peptide fold change (50 µM)
DNAJB12_Q9NXW2_363_MGTPSCSR (UniProt Q9NXW2)	-0.244	-0.0858
DIDO1_Q9BTC0_296_CEEWFHGDCVGISEAR (UniProt Q9BTC0)	0.116	-0.082
DHX35_Q9H5Z1_609_CIVSGFFANAAR (UniProt Q9H5Z1)	0.0248	0.134
DIAPH1_O60610_964_LQFSEQVENIKPEIVSVTAACEELR (UniProt O60610)	0.176	0.06
DIAPH3_Q9NSV4_1125_SHYNINCNSTR (UniProt Q9NSV4)	-0.152	-0.115
DHX8_Q14562_1062_FSNPWCYENFIQAR (UniProt Q14562)	-0.00411	-0.118
DISC1_Q9NRI5_239_EAESHCQSPQEMGAK (UniProt Q9NRI5)	0.0303	-0.145
DNAJC7_Q99615_7_AAAAECDVVMAATEPELLDDQEAKR (UniProt Q99615)	-0.0553	-0.0303
DHX30_Q7L2E3_346_RPCTIQVPEPILR (UniProt Q7L2E3)	-0.167	-0.454
DLAT_P10515_586_NFSAIINPPQACILAIGASEDK (UniProt P10515)	-0.027	0.0113
DHX36_Q9H2U1_836_AVICAGLYPK (UniProt Q9H2U1)	0.0714	-0.0504
DHX15_O43143_190_RGVACTQPR (UniProt O43143)	-0.00445	-0.0278
DHX30_Q7L2E3_535_GGALLFCTVGILLR (UniProt Q7L2E3)	-0.555	0.0894
DNM1L_O00429_300_LLMHHIRDCLPELK (UniProt O00429)	-0.355	-0.178
DMXL1_Q9Y485_2781_MFEWGHSQQITCFR (UniProt Q9Y485)	-0.132	0.0733
DHX8_Q14562_1096_HKLDVVSCGK (UniProt Q14562)	0.0209	0.0501
DHX8_Q14562_1108_AICSGFFR (UniProt Q14562)	-0.0633	-0.149
DIS3_Q9Y2L1_213_LACLSEEGNEIESGK (UniProt Q9Y2L1)	0.0746	0.0489
DMXL2_Q8TDJ6_2925_KGHVCIFDIR (UniProt Q8TDJ6)	0.00104	0.142
DNAJC7_Q99615_175_ALEFAPACHR (UniProt Q99615)	0.0846	0.158

Target	probe-labelled cysteine peptide fold change (10 µM)	probe-labelled cysteine peptide fold change (50 µM)
DNM1L_O00429_644_DCEVIER (UniProt O00429)	0.0323	0.111
DMAC1_Q96GE9_50_TCWSCR (UniProt Q96GE9)	-0.0609	0.289
DNAJA3_Q96EY1_256_VQHCHYCGGSGMETINTGPFVMR (UniProt Q96EY1)	-0.0963	0.0469
DHX15_O43143_226_FEDCSSAK (UniProt O43143)	-0.14	-0.0805
DKC1_O60832_220_LGIFWVSCEAGTYIR (UniProt O60832)	0.18	0.371
DLGAP5_Q15398_492_QFEGLVDDCEYKR (UniProt Q15398)	-0.0897	-0.00217
DLG4_P78352_562_FGSCVPHTTRPK (UniProt P78352)	0.11	-0.315
DIEXF_Q68CQ4_311_HVYCLHVINHILK (UniProt Q68CQ4)	-0.0501	0.0785
DIAPH1_O60610_1227_AGCAVTSLLASELTK (UniProt O60610)	-0.0516	-0.221
DNAJA3_Q96EY1_292_GSIIISPCVVCR (UniProt Q96EY1)	0.144	0.185
DMRT1_Q9Y5R6_105_CNLIAER (UniProt Q9Y5R6)	1.19	0.0204
DIAPH1_O60610_164_DMPLLSCLESLR (UniProt O60610)	-0.149	0.0143
DNAJC13_O75165_2110_RADTVGLACEAINR (UniProt O75165)	-0.112	-0.0276
DIAPH3_Q9NSV4_663_IRPHEMTENCFWIK (UniProt Q9NSV4)	-0.181	-0.0782
DICER1_Q9UPY3_1063_LHCLLTAEELR (UniProt Q9UPY3)	0.0331	0.055
DLGAP5_Q15398_381_TIQQDSNKLPCPLGPLTVWHEEHVLNK (UniProt Q15398)	-0.231	-0.00596
DNAAF2_Q9NVR5_673_LQECSNSDQLQGK (UniProt Q9NVR5)	0.271	0.0311
DHX8_Q14562_670_ECLIDPDLTQYAIIMLDEAHER (UniProt Q14562)	-0.0271	0.0569
DLAT_P10515_291_DVPLGTPLCIIVEK (UniProt P10515)	0.0496	0.0162
DNAJC16_Q9Y2G8_375_LFHELCPVKR (UniProt Q9Y2G8)	-0.0102	0.0535
